Measured values from US20160311882A1 (ELI LILLY AND COMPANY, priority 2013, published 2016).
Non-standard residues stand in square brackets, D forms with d. No end group written: not given here. Aib = CC(C)(N)C(=O)O

Experiment: general procedure: Fmoc solid-phase peptide synthesis; Fmoc-Rink amide polystyrene resin (Rapp Polymere), approximately 0.68 mmol/g; DIC/HOBt
Details: whole synthesis, 220 nm, scale 0.125 mmols, TFA salt converted to acetate salt

**Q.** For “YSQGTFTSDYSKYLD[Aib]KKAQEFVEWLLKTGPSSGAPPKSK-NH2”, which “final purity (method not given)” value is on record?
**A.** >95%
